Laboratory results taken from patent publication US20230365651A1.
No constants are given. Whether binding was seen depends on the method and setting. Binding calls can cover weak binding; strength is not graded here.

Molecular target: HLA-B*07:02 (human)
Experiment: UV peptide exchange, anti-b2m ELISA

| binding | Binder |
| --- | --- |
| binds | MPNLPSTTSL [… (SEQ ID NO: 133)] |
| binds | KPSESIYSAL [… (SEQ ID NO: 123)] |
| binds | YPGFPQSQY [… (SEQ ID NO: 122)] |
| binds | SPAMTSTSF [… (SEQ ID NO: 143)] |
| binds | SPGATSRGTL [… (SEQ ID NO: 137)] |
| binds | SPFSAEEANSL [… (SEQ ID NO: 136)] |
| binds | RPAMNYDKL [… (SEQ ID NO: 120)] |
| binds | IPGPAQSTI [… (SEQ ID NO: 132)] |
| binds | APRWFPQPTVV [… (SEQ ID NO: 147)] |
| binds | RPIVPGPLL [… (SEQ ID NO: 134)] |
| binds | SPMATTSTL [… (SEQ ID NO: 138)] |
| binds | RPLFQKSSM [… (SEQ ID NO: 37)] |
| binds | LPMWKVTAF [… (SEQ ID NO: 303)] |
| binds | RPAPFEVVF [… (SEQ ID NO: 39)] |
| binds | SPSSPMSTF [… (SEQ ID NO: 145)] |
| binds | SPASRSISL [… (SEQ ID NO: 118)] |
| binds | APRAGSQVV [… (SEQ ID NO: 127)] |
| binds | YPRTITPGM [… (SEQ ID NO: 128)] |
| binds | LPRGPLASLL [… (SEQ ID NO: 34)] |
| binds | SPMTSLLTSGL [… (SEQ ID NO: 141)] |
| binds | APLPRPGAVL [… (SEQ ID NO: 119)] |
| binds | VPVYILLDEM [… (SEQ ID NO: 125)] |
| binds | HPGSSALHY [… (SEQ ID NO: 299)] |
| binds | RVRSTISSL [… (SEQ ID NO: 135)] |
| binds | KPGTSYRVTL [… (SEQ ID NO: 40)] |

Second part, the binder before the results:

| Binder | binding |
| --- | --- |
| SPQSMSNTL [… (SEQ ID NO: 139)] | binds |
| SPNKGTLSV [… (SEQ ID NO: 32)] | binds |
| FPRLVGPDF [… (SEQ ID NO: 130)] | binds |
| KPGPEDKL [KPGPEDKL (SEQ ID NO: 126)] | binds |
| RVRSRISNL [… (SEQ ID NO: 41)] | binds |
| YPLRGSSI [YPLRGSSI (SEQ ID NO: 296)] | binds |
| SPTFHLTL [SPTFHLTL (SEQ ID NO: 33)] | binds |
| IPMAAVKQAL [… (SEQ ID NO: 300)] | binds |
| GPREALSRL [… (SEQ ID NO: 149)] | binds |
| FPDNQRPAL [… (SEQ ID NO: 35)] | binds |
| TPGLRETSI [… (SEQ ID NO: 142)] | binds |
| SPRTEASSAVL [… (SEQ ID NO: 140)] | binds |
| TVREASGLL [… (SEQ ID NO: 297)] | binds |
| LPRPGAVL [LPRPGAVL (SEQ ID NO: 304)] | binds |
| YPLRGSSIF [… (SEQ ID NO: 294)] | binds |
| KPYGGSGPL [… (SEQ ID NO: 148)] | binds |
| SPSPVSSTL [… (SEQ ID NO: 144)] | binds |
| IPRPEVQAL [… (SEQ ID NO: 146)] | binds |
| SPRRSPRISF [… (SEQ ID NO: 301)] | binds |
| YPLRGSSIFGL [… (SEQ ID NO: 295)] | binds |
| SPHPVTALLTL [… (SEQ ID NO: 38)] | binds |
| APTEDLKAL [… (SEQ ID NO: 131)] | binds |
| APAAWLRSA [… (SEQ ID NO: 36)] | binds |
| LPSDSHFKITF [… (SEQ ID NO: 124)] | binds |
| YPTEHVQF [YPTEHVQF (SEQ ID NO: 298)] | binds |
| APRPASSL [APRPASSL (SEQ ID NO: 129)] | binds |
| RVEEVRALL [… (SEQ ID NO: 302)] | binds |
| VPNQSSESL [… (SEQ ID NO: 121)] | binds |
| TPWAESSTKF [… (SEQ ID NO: 305)] | binds |
| VPDSGATATAY [… (SEQ ID NO: 293)] | binds |
